This is one part of the list.
Key:
Experiment in all cases: log2 fold change, soluble protein after heating vs DMSO (PISA); higher = thermal stabilisation; K562 lysate, 10 uM; active = over 0.2 and 3.5 SD of the protein, either way, in both replicates (recomputed)
ibrutinib = compound: C=CC(=O)N1CCC[C@@H](n2nc(-c3ccc(Oc4ccccc4)cc3)c3c(N)ncnc32)C1 [ibrutinib]
In short: (§1)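 Quantification was by TMTpro 16plex LC-MS/MS with equalised channel sums, applied to the supernatant after 21,000xg for 90 min. Samples were crude K562 extract at 1 mg/mL protein in PBS pH 7.4 with 1 mM MgCl2, treated with 10 μM compound for 30 min, heated for 3 min across 48°C-58°C, pooled and brought to 0.5% NP-40 at 4°C. Values are log-two fold changes in thermal stability relative to solvent controls, from duplicates.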

The chains behind the UniProt entries cited, without tags or fusion partners. Where a name states a change or a piece, a line headed by the entry shows the natural chain unless it says otherwise.
UniProt Q68E01, whole entry, looked up: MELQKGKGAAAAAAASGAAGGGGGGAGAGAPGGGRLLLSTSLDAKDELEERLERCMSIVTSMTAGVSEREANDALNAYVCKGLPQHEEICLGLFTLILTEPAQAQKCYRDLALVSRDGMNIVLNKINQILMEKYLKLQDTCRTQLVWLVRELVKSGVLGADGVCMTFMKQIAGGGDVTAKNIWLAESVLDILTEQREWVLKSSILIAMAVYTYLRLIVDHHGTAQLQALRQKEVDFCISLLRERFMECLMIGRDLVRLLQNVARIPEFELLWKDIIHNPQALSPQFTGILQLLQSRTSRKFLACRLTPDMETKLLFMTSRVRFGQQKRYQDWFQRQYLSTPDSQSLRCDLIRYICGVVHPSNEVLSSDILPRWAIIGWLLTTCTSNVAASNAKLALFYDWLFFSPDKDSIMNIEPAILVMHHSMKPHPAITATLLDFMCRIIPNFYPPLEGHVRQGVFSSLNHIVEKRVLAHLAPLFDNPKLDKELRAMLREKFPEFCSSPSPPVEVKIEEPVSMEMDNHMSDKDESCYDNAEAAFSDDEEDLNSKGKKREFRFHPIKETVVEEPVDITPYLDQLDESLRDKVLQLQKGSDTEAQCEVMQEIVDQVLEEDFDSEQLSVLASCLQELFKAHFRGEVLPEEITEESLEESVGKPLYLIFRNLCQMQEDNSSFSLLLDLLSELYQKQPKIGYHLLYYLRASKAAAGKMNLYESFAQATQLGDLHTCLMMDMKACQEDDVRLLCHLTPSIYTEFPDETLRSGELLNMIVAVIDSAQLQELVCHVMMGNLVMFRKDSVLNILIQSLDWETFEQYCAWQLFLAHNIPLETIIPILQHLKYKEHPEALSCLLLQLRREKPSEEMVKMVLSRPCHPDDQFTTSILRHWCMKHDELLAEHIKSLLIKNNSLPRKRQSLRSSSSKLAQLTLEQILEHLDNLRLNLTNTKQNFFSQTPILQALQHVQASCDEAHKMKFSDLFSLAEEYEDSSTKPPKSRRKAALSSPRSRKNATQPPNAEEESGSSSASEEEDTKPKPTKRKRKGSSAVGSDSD
UniProt Q8TB96: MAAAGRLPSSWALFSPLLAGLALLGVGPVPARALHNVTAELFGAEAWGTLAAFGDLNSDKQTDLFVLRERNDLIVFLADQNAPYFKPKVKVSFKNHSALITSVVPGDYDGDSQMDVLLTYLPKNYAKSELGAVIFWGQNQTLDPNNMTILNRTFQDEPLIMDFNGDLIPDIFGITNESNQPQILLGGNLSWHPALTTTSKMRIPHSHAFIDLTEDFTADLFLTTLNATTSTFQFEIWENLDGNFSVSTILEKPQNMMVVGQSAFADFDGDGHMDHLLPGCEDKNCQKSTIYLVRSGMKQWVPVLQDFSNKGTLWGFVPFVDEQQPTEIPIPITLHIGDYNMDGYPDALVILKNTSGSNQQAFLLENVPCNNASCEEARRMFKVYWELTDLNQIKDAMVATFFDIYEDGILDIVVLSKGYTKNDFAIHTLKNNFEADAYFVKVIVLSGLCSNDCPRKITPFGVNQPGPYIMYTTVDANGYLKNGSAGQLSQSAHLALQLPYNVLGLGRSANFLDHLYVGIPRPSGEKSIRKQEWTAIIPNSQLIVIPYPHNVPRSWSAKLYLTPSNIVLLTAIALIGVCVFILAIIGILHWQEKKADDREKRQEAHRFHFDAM
UniProt O75449: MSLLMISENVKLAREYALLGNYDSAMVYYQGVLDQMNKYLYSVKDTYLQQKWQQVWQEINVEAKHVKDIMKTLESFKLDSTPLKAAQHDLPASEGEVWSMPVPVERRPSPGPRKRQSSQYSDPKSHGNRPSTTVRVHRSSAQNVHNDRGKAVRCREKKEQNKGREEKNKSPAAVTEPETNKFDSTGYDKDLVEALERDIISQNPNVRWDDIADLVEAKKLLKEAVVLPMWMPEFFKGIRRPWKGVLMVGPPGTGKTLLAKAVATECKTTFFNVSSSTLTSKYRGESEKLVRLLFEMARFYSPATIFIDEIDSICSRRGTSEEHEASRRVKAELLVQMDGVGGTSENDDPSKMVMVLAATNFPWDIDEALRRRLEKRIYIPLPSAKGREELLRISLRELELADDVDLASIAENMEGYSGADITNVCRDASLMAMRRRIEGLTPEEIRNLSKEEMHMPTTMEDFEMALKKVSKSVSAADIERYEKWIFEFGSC
UniProt Q9NZM3: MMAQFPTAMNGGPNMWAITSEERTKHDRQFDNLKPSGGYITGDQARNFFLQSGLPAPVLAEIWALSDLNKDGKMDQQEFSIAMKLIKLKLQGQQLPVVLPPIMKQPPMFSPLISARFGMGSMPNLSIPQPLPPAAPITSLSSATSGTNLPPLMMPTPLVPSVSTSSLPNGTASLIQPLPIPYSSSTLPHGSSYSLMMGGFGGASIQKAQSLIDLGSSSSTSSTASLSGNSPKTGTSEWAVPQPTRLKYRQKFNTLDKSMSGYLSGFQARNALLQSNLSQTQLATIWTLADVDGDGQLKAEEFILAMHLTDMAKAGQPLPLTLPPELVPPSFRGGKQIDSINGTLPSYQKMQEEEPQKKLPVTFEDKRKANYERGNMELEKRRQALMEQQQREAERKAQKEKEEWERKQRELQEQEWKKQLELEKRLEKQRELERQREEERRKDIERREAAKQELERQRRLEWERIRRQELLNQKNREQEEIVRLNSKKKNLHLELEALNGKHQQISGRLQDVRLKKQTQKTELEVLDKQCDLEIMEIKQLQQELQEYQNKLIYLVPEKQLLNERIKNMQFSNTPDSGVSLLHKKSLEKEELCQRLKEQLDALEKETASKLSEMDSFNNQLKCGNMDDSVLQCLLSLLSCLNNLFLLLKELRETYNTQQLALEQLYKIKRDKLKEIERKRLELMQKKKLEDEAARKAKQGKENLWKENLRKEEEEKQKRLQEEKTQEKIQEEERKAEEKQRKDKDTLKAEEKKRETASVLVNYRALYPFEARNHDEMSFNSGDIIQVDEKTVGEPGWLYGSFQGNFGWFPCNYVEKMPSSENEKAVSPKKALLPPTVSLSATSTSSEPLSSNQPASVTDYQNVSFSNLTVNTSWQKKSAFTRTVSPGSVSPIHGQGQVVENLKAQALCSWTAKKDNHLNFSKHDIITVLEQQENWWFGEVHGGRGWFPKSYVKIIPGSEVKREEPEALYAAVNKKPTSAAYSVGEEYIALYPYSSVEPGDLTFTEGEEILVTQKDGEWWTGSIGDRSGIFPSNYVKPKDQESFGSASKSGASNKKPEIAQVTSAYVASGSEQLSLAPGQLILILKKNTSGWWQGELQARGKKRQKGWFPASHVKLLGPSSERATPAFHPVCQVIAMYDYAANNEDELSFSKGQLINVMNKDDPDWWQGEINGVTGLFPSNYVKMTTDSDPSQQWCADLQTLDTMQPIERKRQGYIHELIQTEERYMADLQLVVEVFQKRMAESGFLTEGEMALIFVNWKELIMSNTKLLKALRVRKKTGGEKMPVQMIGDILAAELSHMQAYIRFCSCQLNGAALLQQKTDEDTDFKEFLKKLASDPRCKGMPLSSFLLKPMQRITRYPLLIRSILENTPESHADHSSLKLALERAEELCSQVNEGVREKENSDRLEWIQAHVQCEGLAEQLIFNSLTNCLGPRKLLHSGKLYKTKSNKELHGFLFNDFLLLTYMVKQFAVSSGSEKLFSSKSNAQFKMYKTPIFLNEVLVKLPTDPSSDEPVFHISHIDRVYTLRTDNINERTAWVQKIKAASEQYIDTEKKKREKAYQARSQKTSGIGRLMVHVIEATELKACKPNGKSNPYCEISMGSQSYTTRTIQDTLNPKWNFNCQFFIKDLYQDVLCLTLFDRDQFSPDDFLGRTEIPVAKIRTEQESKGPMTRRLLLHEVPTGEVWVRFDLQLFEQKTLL
UniProt Q9H910: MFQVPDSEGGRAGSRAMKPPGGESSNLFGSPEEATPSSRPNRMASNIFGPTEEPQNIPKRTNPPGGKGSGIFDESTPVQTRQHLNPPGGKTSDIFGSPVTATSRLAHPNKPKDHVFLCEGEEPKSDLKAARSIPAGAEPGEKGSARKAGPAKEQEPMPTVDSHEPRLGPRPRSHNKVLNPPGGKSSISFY
UniProt Q9H1B7, whole entry, looked up: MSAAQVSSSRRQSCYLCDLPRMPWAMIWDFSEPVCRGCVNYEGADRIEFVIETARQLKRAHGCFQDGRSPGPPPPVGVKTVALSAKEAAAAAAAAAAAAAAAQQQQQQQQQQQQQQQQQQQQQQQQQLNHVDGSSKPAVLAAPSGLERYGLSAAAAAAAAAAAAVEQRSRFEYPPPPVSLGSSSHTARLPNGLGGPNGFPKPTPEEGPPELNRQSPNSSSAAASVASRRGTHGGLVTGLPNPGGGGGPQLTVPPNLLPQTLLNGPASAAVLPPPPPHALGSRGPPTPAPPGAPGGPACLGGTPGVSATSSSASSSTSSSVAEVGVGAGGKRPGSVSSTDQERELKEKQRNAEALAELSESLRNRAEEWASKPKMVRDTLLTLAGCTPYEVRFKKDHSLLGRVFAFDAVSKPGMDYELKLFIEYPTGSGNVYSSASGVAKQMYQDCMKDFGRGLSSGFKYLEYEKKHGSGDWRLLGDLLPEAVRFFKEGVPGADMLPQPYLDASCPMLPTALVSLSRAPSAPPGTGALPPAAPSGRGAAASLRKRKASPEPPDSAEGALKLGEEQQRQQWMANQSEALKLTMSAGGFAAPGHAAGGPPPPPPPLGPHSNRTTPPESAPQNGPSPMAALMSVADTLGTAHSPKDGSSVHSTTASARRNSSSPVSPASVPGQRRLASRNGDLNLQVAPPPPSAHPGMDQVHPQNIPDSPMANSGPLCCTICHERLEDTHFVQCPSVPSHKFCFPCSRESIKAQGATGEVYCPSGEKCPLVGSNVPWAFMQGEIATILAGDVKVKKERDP
UniProt Q9BUE6: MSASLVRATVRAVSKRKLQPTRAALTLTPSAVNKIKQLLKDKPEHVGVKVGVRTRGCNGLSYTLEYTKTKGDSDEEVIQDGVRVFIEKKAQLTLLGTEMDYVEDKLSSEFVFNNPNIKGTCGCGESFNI
UniProt Q8NB78: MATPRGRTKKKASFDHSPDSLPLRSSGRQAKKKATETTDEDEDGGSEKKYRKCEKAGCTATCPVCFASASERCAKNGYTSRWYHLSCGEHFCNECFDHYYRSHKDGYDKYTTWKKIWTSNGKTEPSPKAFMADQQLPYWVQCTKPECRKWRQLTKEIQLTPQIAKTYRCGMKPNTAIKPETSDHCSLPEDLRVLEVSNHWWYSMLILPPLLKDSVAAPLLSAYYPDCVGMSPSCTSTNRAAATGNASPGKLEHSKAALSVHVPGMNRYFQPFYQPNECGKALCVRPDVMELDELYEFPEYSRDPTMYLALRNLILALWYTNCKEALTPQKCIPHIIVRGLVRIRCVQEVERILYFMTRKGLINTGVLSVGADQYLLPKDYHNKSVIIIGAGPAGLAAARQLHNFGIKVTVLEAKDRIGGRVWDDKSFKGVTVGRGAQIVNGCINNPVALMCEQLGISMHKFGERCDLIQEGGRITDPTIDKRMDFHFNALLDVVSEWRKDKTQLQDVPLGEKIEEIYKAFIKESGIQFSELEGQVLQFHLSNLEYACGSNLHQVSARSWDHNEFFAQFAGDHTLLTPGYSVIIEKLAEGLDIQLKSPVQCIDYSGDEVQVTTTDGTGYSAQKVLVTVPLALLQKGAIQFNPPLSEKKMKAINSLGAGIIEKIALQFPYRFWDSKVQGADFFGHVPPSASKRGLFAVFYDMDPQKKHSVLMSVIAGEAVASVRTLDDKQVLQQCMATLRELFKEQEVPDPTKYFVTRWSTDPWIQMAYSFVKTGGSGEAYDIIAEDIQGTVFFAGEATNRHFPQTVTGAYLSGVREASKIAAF
UniProt Q15046, whole entry, looked up: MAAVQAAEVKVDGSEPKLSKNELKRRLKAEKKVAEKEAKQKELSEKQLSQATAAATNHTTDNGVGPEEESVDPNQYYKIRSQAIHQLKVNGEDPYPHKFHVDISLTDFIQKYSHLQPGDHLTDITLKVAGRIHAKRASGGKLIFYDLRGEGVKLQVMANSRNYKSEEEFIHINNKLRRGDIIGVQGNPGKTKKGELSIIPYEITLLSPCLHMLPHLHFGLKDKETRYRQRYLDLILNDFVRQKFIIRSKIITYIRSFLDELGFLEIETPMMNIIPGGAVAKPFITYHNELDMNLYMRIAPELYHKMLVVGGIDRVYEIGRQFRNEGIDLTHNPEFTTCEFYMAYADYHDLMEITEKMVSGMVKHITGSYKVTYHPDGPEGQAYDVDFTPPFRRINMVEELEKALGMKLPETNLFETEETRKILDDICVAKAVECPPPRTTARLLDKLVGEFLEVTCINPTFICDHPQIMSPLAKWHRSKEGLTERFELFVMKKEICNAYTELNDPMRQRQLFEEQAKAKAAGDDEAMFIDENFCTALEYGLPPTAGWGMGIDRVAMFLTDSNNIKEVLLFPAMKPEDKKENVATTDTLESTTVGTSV
UniProt Q86U28: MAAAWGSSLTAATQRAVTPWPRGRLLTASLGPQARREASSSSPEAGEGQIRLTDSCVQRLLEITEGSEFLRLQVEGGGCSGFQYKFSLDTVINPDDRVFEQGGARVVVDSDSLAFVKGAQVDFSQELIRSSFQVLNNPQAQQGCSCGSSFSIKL

[1] = compound: CC(=O)c1cnc2ccc(-c3cc(Cl)c(O)c(Cl)c3)nc2c1N[C@H]1CC[C@H](CN(C)C)CC1
In short: as §1

ralimetinib = compound: CC(C)(C)Cn1c(N)nc2ccc(-c3[nH]c(C(C)(C)C)nc3-c3ccc(F)cc3)nc21 [ralimetinib]
In short: as §1

[2] = compound: CC(C)(O)CC(=O)NCCn1ccc2ncnc(Nc3ccc(Oc4cccc(C(F)(F)F)c4)c(Cl)c3)c21
In short: as §1

[3] = compound: CC(C)C1=C2N=C(C=C(N2N=C1)NCC3=CC=CC=C3)NCCCCCCN
In short: as §1

[4] = compound: CC1=C(C(CC(=O)N1)C2=CC=C(C=C2)C(F)(F)F)C(=O)NC3=C(C=C4C(=C3)C=NN4)F
In short: as §1

[5] = compound: CC1=C(C2=C(C=C1)C(=O)C3=CC=CC=C3N2CCCN)C
In short: as §1

[6] = compound: CC1=C(C=C(C=C1)NC(=O)C2=CC(=CC=C2)C(C)(C)C#N)NC3=CC4=C(C=C3)N=CN(C4=O)C
In short: as §1

[7] = compound: CC1=C(C=C(C=C1)NC(=O)C2=CC(=CC=C2)N(C)C)NC(=O)C3=CC=C(C=C3)O
In short: as §1

[8] = compound: CC1=CC=C(C=C1)SC2=C3C=C(SC3=CN=C2)C(=O)N
In short: as §1

Row | Target | log2 fold change (ibrutinib) | log2 fold change [1] | log2 fold change (ralimetinib) | log2 fold change [2] | log2 fold change [3] | log2 fold change [4] | log2 fold change [5] | log2 fold change [6] | log2 fold change [7] | log2 fold change [8]
1 | IRAK4 (UniProt Q9NWZ3) | inactive: 0 | inactive: 0.195 | inactive: 0 | inactive: -0.018 | inactive: -0.01 | inactive: -0.018 | inactive: -0.011 | inactive: -0.018 | inactive: 0.008 | inactive: -0.041
2 | IP6K1 (UniProt Q92551) | inactive: -0.334 | inactive: -0.018 | inactive: -0.053 | inactive: 0.017 | inactive: -0.002 | inactive: 0.13 | inactive: 0.026 | inactive: 0.014 | inactive: 0.04 | –
3 | INTS3 (UniProt Q68E01) | inactive: 0.044 | inactive: 0.024 | inactive: 0.019 | inactive: -0.032 | inactive: 0.032 | inactive: -0.035 | inactive: 0.004 | inactive: 0.009 | inactive: 0.025 | inactive: -0.032
4 | INTS7 (UniProt Q9NVH2) | inactive: 0.012 | inactive: 0.061 | inactive: 0.083 | inactive: -0.024 | inactive: 0.023 | inactive: 0.023 | inactive: -0.09 | active: 0.543 | inactive: 0.007 | inactive: 0.039
5 | IPO13 (UniProt O94829) | inactive: 0.028 | inactive: -0.007 | inactive: 0.02 | inactive: -0.044 | inactive: -0.025 | inactive: -0.041 | inactive: 0.07 | inactive: -0.005 | inactive: 0.011 | inactive: -0.005
6 | ITFG1 (UniProt Q8TB96) | inactive: 0.019 | inactive: -0.019 | inactive: -0.006 | inactive: -0.02 | inactive: -0.044 | inactive: 0.007 | inactive: 0.008 | inactive: -0.014 | inactive: 0.012 | inactive: -0.078
7 | KCTD20 (UniProt Q7Z5Y7) | inactive: 0.109 | inactive: 0.071 | inactive: 0.099 | inactive: -0.009 | inactive: 0.044 | inactive: 0.062 | inactive: 0.034 | inactive: -0.001 | inactive: 0.105 | inactive: -0.051
8 | KATNA1 (UniProt O75449) | inactive: -0.016 | inactive: 0.024 | inactive: 0.015 | inactive: -0.047 | inactive: -0.035 | inactive: 0.017 | inactive: -0.011 | inactive: -0.004 | inactive: -0.016 | inactive: 0.037
9 | IPO9 (UniProt Q96P70) | inactive: -0.009 | inactive: -0.019 | inactive: 0.017 | inactive: -0.005 | inactive: -0.007 | inactive: -0.004 | inactive: -0.009 | inactive: 0.004 | inactive: -0.001 | inactive: -0.008
10 | ITSN2 (UniProt Q9NZM3) | inactive: 0.002 | inactive: -0.017 | inactive: 0.057 | inactive: -0.004 | inactive: 0.023 | inactive: -0.028 | inactive: 0.047 | inactive: 0.039 | inactive: -0.01 | inactive: -0.028
11 | IQGAP3 (UniProt Q86VI3) | inactive: 0.028 | inactive: 0.054 | inactive: 0.021 | inactive: -0.06 | inactive: -0.027 | inactive: 0.017 | inactive: -0.153 | inactive: -0.017 | inactive: 0.082 | inactive: -0.051
12 | INTS8 (UniProt Q75QN2) | inactive: 0.024 | inactive: 0.028 | inactive: 0.058 | inactive: -0.028 | inactive: 0.009 | inactive: -0.021 | inactive: -0.179 | inactive: 0.023 | inactive: -0.033 | inactive: 0.031
13 | JPT2 isoform 3 (UniProt Q9H910) | inactive: 0.025 | inactive: -0.009 | inactive: -0.008 | inactive: -0.041 | inactive: -0.002 | inactive: -0.019 | inactive: -0.004 | inactive: 0.001 | inactive: 0.017 | inactive: -0.027
14 | ITPKA (UniProt P23677) | inactive: 0.043 | inactive: -0.009 | inactive: 0.007 | inactive: -0.044 | inactive: 0.011 | inactive: 0.023 | inactive: 0.002 | inactive: -0.012 | inactive: 0.022 | inactive: 0.026
15 | JMJD1C (UniProt Q15652) | inactive: -0.095 | inactive: -0.017 | inactive: -0.008 | inactive: -0.03 | inactive: -0.002 | inactive: 0.009 | inactive: 0.015 | inactive: -0.034 | inactive: 0.041 | inactive: 0.02
16 | IRF2BPL (UniProt Q9H1B7) | inactive: 0.052 | inactive: 0.004 | inactive: 0.039 | inactive: 0.026 | inactive: -0.026 | inactive: 0.02 | inactive: -0.018 | inactive: 0.045 | inactive: 0.029 | inactive: -0.038
17 | IPO5 isoform 3 (UniProt O00410) | inactive: 0.023 | inactive: 0.011 | inactive: 0.013 | inactive: -0.009 | inactive: -0.032 | inactive: -0.015 | inactive: 0.008 | inactive: 0 | inactive: -0.001 | inactive: 0.009
18 | IPO8 (UniProt O15397) | inactive: -0.033 | inactive: -0.029 | inactive: 0.033 | inactive: -0.019 | inactive: -0.034 | inactive: -0.024 | inactive: -0.002 | inactive: 0.009 | inactive: 0.032 | inactive: -0.031
19 | KCMF1 (UniProt Q9P0J7) | inactive: -0.047 | inactive: 0.008 | inactive: -0.005 | inactive: -0.045 | inactive: 0.057 | inactive: -0.077 | inactive: -0.007 | inactive: 0.093 | inactive: -0.077 | inactive: -0.022
20 | ITPA (UniProt Q9BY32) | inactive: -0.028 | inactive: 0.01 | inactive: -0.021 | inactive: -0.026 | inactive: -0.013 | inactive: -0.045 | inactive: -0.021 | inactive: 0.036 | inactive: -0.017 | inactive: -0.003
21 | ISCA1 isoform 2 (UniProt Q9BUE6) | inactive: 0.049 | inactive: -0.001 | inactive: 0.04 | inactive: -0.028 | inactive: -0.069 | inactive: -0.276 | inactive: -0.006 | inactive: 0.031 | inactive: -0.029 | inactive: -0.016
22 | IREB2 (UniProt P48200) | inactive: -0.002 | inactive: -0.015 | inactive: 0.013 | inactive: -0.038 | inactive: -0.032 | inactive: -0.008 | inactive: -0.009 | inactive: 0.025 | inactive: -0.001 | inactive: 0.016
23 | INTS4 (UniProt Q96HW7) | inactive: 0.051 | inactive: 0.001 | inactive: 0.028 | inactive: -0.036 | inactive: -0.066 | inactive: -0.021 | inactive: -0.033 | inactive: 0.021 | inactive: 0.006 | inactive: -0.009
24 | KBTBD4 isoform 2 (UniProt Q9NVX7) | inactive: 0.051 | inactive: -0.026 | inactive: -0.069 | inactive: 0.009 | inactive: -0.039 | inactive: -0.156 | inactive: -0.045 | inactive: 0.142 | inactive: -0.014 | inactive: 0.031
25 | KDM1B (UniProt Q8NB78) | inactive: 0.03 | inactive: 0.027 | inactive: -0.07 | inactive: 0.05 | inactive: -0.017 | inactive: -0.101 | inactive: -0.059 | inactive: -0.018 | inactive: 0.058 | inactive: 0.012
26 | ITGB5 (UniProt P18084) | inactive: 0.014 | inactive: -0.013 | inactive: 0.048 | inactive: 0.005 | inactive: -0.033 | inactive: -0.016 | inactive: 0.045 | inactive: -0.019 | inactive: 0.016 | inactive: -0.009
27 | KARS1 (UniProt Q15046) | inactive: 0.009 | inactive: 0.012 | inactive: 0.016 | inactive: 0.018 | inactive: 0.001 | inactive: -0.011 | inactive: 0.024 | inactive: -0.014 | inactive: 0.015 | inactive: 0.029
28 | IQSEC2 (UniProt Q5JU85) | inactive: 0.016 | inactive: -0.102 | inactive: 0.088 | inactive: 0.051 | inactive: -0.027 | inactive: -0.031 | inactive: -0.258 | inactive: 0.049 | inactive: -0.027 | inactive: -0.059
29 | ISCA2 (UniProt Q86U28) | inactive: 0.114 | inactive: 0.028 | inactive: 0.051 | inactive: -0.026 | inactive: 0.025 | inactive: -0.14 | inactive: 0.024 | inactive: 0.011 | inactive: -0.047 | inactive: 0.019
30 | ITGA5 (UniProt P08648) | inactive: 0.042 | inactive: 0.007 | inactive: 0.011 | inactive: -0.018 | inactive: -0.016 | inactive: 0.014 | inactive: 0.02 | inactive: -0.013 | inactive: -0.002 | inactive: -0.02

Another view of some results above:
Row	Target	log2 fold change (ibrutinib)	log2 fold change [1]	log2 fold change (ralimetinib)	log2 fold change [2]	log2 fold change [3]	log2 fold change [4]	log2 fold change [5]	log2 fold change [6]	log2 fold change [7]	log2 fold change [8]
3	INTS3 (UniProt Q68E01)	inactive: 0.044	inactive: 0.024	inactive: 0.019	inactive: -0.032	inactive: 0.032	inactive: -0.035	inactive: 0.004	inactive: 0.009	inactive: 0.025	inactive: -0.032
20	ITPA (UniProt Q9BY32)	inactive: -0.028	inactive: 0.01	inactive: -0.021	inactive: -0.026	inactive: -0.013	inactive: -0.045	inactive: -0.021	inactive: 0.036	inactive: -0.017	inactive: -0.003

Source: the supplement of paper PMC10849652
